PubChem BioAssay AID686943 | Drosophila RNAi Screening Center | 2013
In all, the deposit lists about 23,000 reagents; shown is an unselected part of those with a known target gene and a result. 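Extra replicates exist only for a retested subset of genes; insulin dose and duration not given; both raised and lowered dpERK matter.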 Names joined by + are all predicted targets of the reagent. Not all columns of the deposit are shown. The record does not give: the amount of reagent, the time to read-out.

- Aim: 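Knockdowns that increase or decrease active ERK after insulin receptor stimulation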 (primary screen)
- System: Drosophila S2R+ haemocyte-like cells expressing YFP-tagged ERK (Rolled)
- Reagents: long dsRNA against Drosophila genes
- Treatment: insulin stimulation versus unstimulated cells; dose and duration not given
- Measured: 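Antibody staining for doubly phosphorylated ERK divided by ERK-YFP signal, as plate z-scores, in insulin-treated and untreated cells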
- Direction: replicate 1, z-score of dpERK with insulin: higher = more active ERK per ERK-YFP after insulin

Anp (GeneID 43595) [DRSC14112] gave replicate 1, z-score of dpERK with insulin 0.46.
For CR43670 + grp + CR43671 + 1 more [DRSC03541] the deposit lists replicate 1, z-score of dpERK with insulin 0.33.
Pex12 (GeneID 33256) [DRSC00622] scored replicate 1, z-score of dpERK with insulin -0.68.
After knock-down of Vps33B (GeneID 43077) [DRSC15722], the screen gave replicate 1, z-score of dpERK with insulin 1.12.
After knock-down of Lamp1 (GeneID 35411) [DRSC03727] the results were replicate 1, z-score of dpERK with insulin 0.51.
After knock-down of CG12773 (GeneID 31082) [DRSC18580], the record shows replicate 1, z-score of dpERK with insulin 0.34.
Knock-down of Mpc1 (GeneID 42268) [DRSC14770] resulted in: replicate 1, z-score of dpERK with insulin 1.89.
For tacc (GeneID 40589) [DRSC12019], the entry reads replicate 1, z-score of dpERK with insulin 0.3.
For tacc (GeneID 40589) [DRSC12388], the entry reads replicate 1, z-score of dpERK with insulin -0.24.
After knock-down of Baldspot (GeneID 39860) [DRSC09671], the record shows replicate 1, z-score of dpERK with insulin 0.37.
Octbeta3R (GeneID 3885573) [DRSC15351] showed replicate 1, z-score of dpERK with insulin -0.18.
Octbeta3R (GeneID 3885573) [DRSC16191] showed replicate 1, z-score of dpERK with insulin 0.83.
For Octbeta3R (GeneID 3885573) [DRSC21853] the deposit lists replicate 1, z-score of dpERK with insulin 0.41.
Depletion of Octbeta3R (GeneID 3885573) [DRSC21902] resulted in: replicate 1, z-score of dpERK with insulin 0.34.
Silencing of Octbeta3R (GeneID 3885573) [DRSC22350] resulted in: replicate 1, z-score of dpERK with insulin -0.24.
Silencing of CG33107 (GeneID 326256) [DRSC21898] came out at: replicate 1, z-score of dpERK with insulin 0.32.
With knock-down of S1P (GeneID 40399) [DRSC11810], the record shows replicate 1, z-score of dpERK with insulin 0.71.

5 entries already listed, sorted by “replicate 1, z-score of dpERK with insulin”, low to high.
Pex12 (GeneID 33256) [DRSC00622] | replicate 1, z-score of dpERK with insulin = -0.68
CR43670 + grp + CR43671 + 1 more [DRSC03541] | replicate 1, z-score of dpERK with insulin = 0.33
CG12773 (GeneID 31082) [DRSC18580] | replicate 1, z-score of dpERK with insulin = 0.34
Lamp1 (GeneID 35411) [DRSC03727] | replicate 1, z-score of dpERK with insulin = 0.51
Vps33B (GeneID 43077) [DRSC15722] | replicate 1, z-score of dpERK with insulin = 1.12

Additional reagents follow.
With knock-down of Su(fu) (GeneID 41565) [DRSC16871], the record shows replicate 1, z-score of dpERK with insulin 0.11.
Knock-down of Sec8 (GeneID 40712) [DRSC12300] resulted in: replicate 1, z-score of dpERK with insulin 0.98.
Depletion of CG11788 (GeneID 37295) [DRSC06084] resulted in: replicate 1, z-score of dpERK with insulin 0.22.
Against upd1 (GeneID 32813) [DRSC20358], the values are replicate 1, z-score of dpERK with insulin 0.61.
CCT7 (GeneID 41054) [DRSC16410] showed replicate 1, z-score of dpERK with insulin -0.12.
Depletion of CG13325 (GeneID 36437) [DRSC06362] came out at: replicate 1, z-score of dpERK with insulin -1.5.
With knock-down of Hipk (GeneID 38070) [DRSC07885] the results were replicate 1, z-score of dpERK with insulin 4.32.
For Hipk (GeneID 38070) [DRSC08507] the deposit lists replicate 1, z-score of dpERK with insulin -0.95.
Against plx (GeneID 40704) [DRSC12260], the values are replicate 1, z-score of dpERK with insulin 0.57.
For plx (GeneID 40704) [DRSC12385], the entry reads replicate 1, z-score of dpERK with insulin -0.1.
Against plx (GeneID 40704) [DRSC22683], the values are replicate 1, z-score of dpERK with insulin -2.85.
Cyp9f3 (GeneID 3772405) [DRSC16636] showed replicate 1, z-score of dpERK with insulin -0.13.
hyd (GeneID 41181) [DRSC16971] showed replicate 1, z-score of dpERK with insulin -2.62.
With knock-down of Atx2 (GeneID 41883) [DRSC15727], the record shows replicate 1, z-score of dpERK with insulin -2.68.
